In PMC11063955, “A multiplexed time-resolved fluorescence resonance energy transfer ultrahigh-throughput screening assay for targeting the SMAD4–SMAD3–DNA complex” (Journal of Molecular Cell Biology, 2023):
Results are given in words; binding and its absence hold for the method and conditions named. For some assays here: Binding seen in cells or lysates may run through a third protein. Some entries that bind do so weakly or less than the wild type. Sequences can lack the tags named with a protein.

T1: His-tagged SMAD4 WT (Mothers against decapentaplegic homolog 4), Q13485
T1 chain: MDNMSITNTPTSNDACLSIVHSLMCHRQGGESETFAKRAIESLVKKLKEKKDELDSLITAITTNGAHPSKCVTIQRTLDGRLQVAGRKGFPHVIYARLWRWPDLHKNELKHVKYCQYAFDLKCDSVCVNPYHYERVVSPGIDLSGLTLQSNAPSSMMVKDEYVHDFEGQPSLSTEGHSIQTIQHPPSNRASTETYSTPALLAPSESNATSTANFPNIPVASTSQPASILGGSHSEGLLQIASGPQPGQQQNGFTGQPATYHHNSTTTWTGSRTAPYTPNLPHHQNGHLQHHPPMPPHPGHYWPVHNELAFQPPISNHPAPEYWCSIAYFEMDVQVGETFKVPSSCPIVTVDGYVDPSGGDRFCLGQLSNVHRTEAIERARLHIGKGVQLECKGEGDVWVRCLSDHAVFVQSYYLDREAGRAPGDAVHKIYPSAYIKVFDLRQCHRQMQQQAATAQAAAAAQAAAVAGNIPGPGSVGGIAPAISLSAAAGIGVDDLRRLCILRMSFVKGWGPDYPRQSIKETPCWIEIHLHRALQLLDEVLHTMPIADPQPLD

T2: GST-SMAD4 (full-length), Q13485
T2 chain: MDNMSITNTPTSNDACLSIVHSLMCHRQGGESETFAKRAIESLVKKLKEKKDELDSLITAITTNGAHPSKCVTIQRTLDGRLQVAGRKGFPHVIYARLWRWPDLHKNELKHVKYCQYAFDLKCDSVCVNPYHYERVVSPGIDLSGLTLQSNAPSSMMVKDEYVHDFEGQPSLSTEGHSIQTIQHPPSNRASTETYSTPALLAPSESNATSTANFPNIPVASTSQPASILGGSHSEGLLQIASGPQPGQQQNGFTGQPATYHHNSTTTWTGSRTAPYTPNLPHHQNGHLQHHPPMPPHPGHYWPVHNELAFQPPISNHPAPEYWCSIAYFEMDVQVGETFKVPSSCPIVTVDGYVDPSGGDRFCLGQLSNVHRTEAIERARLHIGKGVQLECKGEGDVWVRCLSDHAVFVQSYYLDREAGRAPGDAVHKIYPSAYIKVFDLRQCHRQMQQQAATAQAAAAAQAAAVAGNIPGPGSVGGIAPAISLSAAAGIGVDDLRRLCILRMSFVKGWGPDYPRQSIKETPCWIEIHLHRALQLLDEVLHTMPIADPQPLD

B1: Flag-tagged SMAD3 WT, P84022 1-425 (natural protein)
chain: MSSILPFTPPIVKRLLGWKKGEQNGQEEKWCEKAVKSLVKKLKKTGQLDELEKAITTQNVNTKCITIPRSLDGRLQVSHRKGLPHVIYCRLWRWPDLHSHHELRAMELCEFAFNMKKDEVCVNPYHYQRVETPVLPPVLVPRHTEIPAEFPPLDDYSHSIPENTNFPAGIEPQSNIPETPPPGYLSEDGETSDHQMNHSMDAGSPNLSPNPMSPAHNNLDLQPVTYCEPAFWCSISYYELNQRVGETFHASQPSMTVDGFTDPSNSERFCLGLLSNVNRNAAVELTRRHIGRGVRLYYIGGEVFAECLSDSAIFVQSPNCNQRYGWHPATVCKIPPGCNLKIFNNQEFAALLAQSVNQGFEAVYQLTRMCTIRMSFVKGWGAEYRRQTVTSTPCWIELHLNGPLQWLDKVLTQMGSPSIRCSSVS
B2: Venus-flag-tagged SMAD3 (full-length), P84022 1-425 (protein)
chain: MSSILPFTPPIVKRLLGWKKGEQNGQEEKWCEKAVKSLVKKLKKTGQLDELEKAITTQNVNTKCITIPRSLDGRLQVSHRKGLPHVIYCRLWRWPDLHSHHELRAMELCEFAFNMKKDEVCVNPYHYQRVETPVLPPVLVPRHTEIPAEFPPLDDYSHSIPENTNFPAGIEPQSNIPETPPPGYLSEDGETSDHQMNHSMDAGSPNLSPNPMSPAHNNLDLQPVTYCEPAFWCSISYYELNQRVGETFHASQPSMTVDGFTDPSNSERFCLGLLSNVNRNAAVELTRRHIGRGVRLYYIGGEVFAECLSDSAIFVQSPNCNQRYGWHPATVCKIPPGCNLKIFNNQEFAALLAQSVNQGFEAVYQLTRMCTIRMSFVKGWGAEYRRQTVTSTPCWIELHLNGPLQWLDKVLTQMGSPSIRCSSVS

Legend:
[1] = target: T1, His-tagged SMAD4 WT (Mothers against …); experiment: AlphaScreen or HTRF; TR-FRET (Tb-D2) on serially diluted lysate of HEK293T cells co-expressing His-SMAD4 and Flag-SMAD3; anti-FLAG M2-Tb cryptate and anti-6xHis-D2 antibodies; FRET buffer 20 mM Tris-HCl pH 7.0, 50 mM NaCl, 0.01% NP-40; 384-well plate, 4°C for 30 min; no DNA; settings: remark: other sources report otherwise
[2] = target: T2, GST-SMAD4 (full-length), Q13485; experiment: pull-down; GST pull-down from lysates of HEK293T cells transfected with both partners; 1% NP-40 lysis buffer; lysates incubated with compounds (GA or GNA, or control) for 16 h at 4°C, then glutathione-conjugated beads 2 h at 4°C; western blot with anti-FLAG-HRP and anti-GST-HRP; no DNA oligonucleotides; settings: remark: other sources report otherwise

Binder	binding [1]	binding [2]
B1	binds	
B2		binds
